Source: PubChem BioAssay AID652259 (Drosophila RNAi Screening Center, 2013)
Test: 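Genome-wide hunt for genes that control Wingless pathway activity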 (primary screen). Cells: Drosophila clone 8 imaginal disc epithelial cells. Reagent: long dsRNA against Drosophila genes. Challenge: pathway stimulated by co-transfected Wingless expression plasmid. Measured: 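Dual luciferase reads per well after Wingless plasmid stimulation: reporter firefly light and Renilla control light; activity is firefly divided by Renilla, a ratio not deposited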. Reading the numbers: firefly reporter light: higher = more Wg reporter light, before normalisation; Renilla control light: higher = more transfected or surviving cells. Call rule: 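Strong candidates differ from their plate mean by at least two out of four per-plate statistical tests; weak candidates meet just one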. Meaning of the calls: active = candidate regulator (raises or lowers reporter); inactive = not a candidate.
The screen tested about 22,000 reagents; below is a random part of those that have a named target and a result. Of all reagents, 233 (1.1%) were called active. 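Light values are raw, unnormalised plate reads; the ratio scores behind the reporter calls were not deposited.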 Unmarked entries are inactive. Reagents against one gene are numbered here. A plus sign joins genes that one reagent is predicted to hit. The record does not give: the amount of reagent, the time to read-out, the dose of the treatment.

| Gene | reagent no. | reporter change call, replicate 1 | firefly reporter light, replicate 1 | firefly reporter light, replicate 2 | Renilla control light, replicate 1 | Renilla control light, replicate 2 |
| --- | --- | --- | --- | --- | --- | --- |
| CG18558 | 1 | – | 4203 | 7449 | 1227 | 2628 |
| CG18558 | 2 | – | 5.27e5 | 5.74e5 | 2.59e5 | 2.60e5 |
| CG5418 | 1 | – | 3123 | 8658 | 1648 | 4295 |
| CG13186 | 1 | – | 8281 | – | 4154 | – |
| ohgt (ohgata) | 1 | – | 10946 | – | 3210 | – |
| CG17738 | 1 | – | 20234 | – | 4437 | – |
| CG34427 | 1 | – | 1514 | 4896 | 1122 | 2134 |
| meigo (medial glomeruli) | 1 | – | 14453 | – | 4838 | – |
| CG5151 | 1 | Wg reporter activity raised (active) | 9515 | – | 1136 | – |
| snf (sans fille) | 1 | – | 1658 | 9101 | 418 | 2807 |
| CG2938 | 1 | – | 3766 | 10256 | 1891 | 3376 |
| CG8929 | 1 | – | 15573 | – | 4617 | – |
| CG8929 | 2 | – | 9.76e5 | 6.00e5 | 4.41e5 | 4.83e5 |
| Samtor (S-adenosylmethionine sensor upstream of TORC1) | 1 | – | 11832 | – | 3900 | – |
| Cad96Cb (Cadherin 96Cb) | 1 | – | 13701 | – | 10482 | – |
| Cad96Cb (Cadherin 96Cb) | 2 | – | 21808 | – | 13564 | – |
| Sry-alpha (Serendipity alpha) | 1 | – | 6215 | – | 2838 | – |
| IFT46 (Intraflagellar transport 46) | 1 | – | 2803 | 7671 | 707 | 2880 |
| CG42380 + CG42379 + PIG-M + 1 more | 1 | – | 17561 | – | 7585 | – |
| CG42380 + CG42379 + PIG-M + 1 more | 2 | – | 6200 | – | 1917 | – |
| spag4 (sperm-associated antigen 4) | 1 | – | 4365 | 7433 | 785 | 3413 |
| CG17207 | 1 | – | 12832 | – | 3005 | – |
| Jheh3 (Juvenile hormone epoxide hydrolase 3) | 1 | – | 8713 | – | 3834 | – |
| Kebab (Kinetochore and EB1 associated basic protein) | 1 | – | 15818 | – | 6493 | – |
| CG11854 | 1 | – | 17760 | – | 13365 | – |
| CG18302 | 1 | – | 2113 | 7200 | 592 | 3301 |
| eIF3f1 (eukaryotic translation initiation factor 3 subunit f1) | 1 | – | 11740 | – | 3264 | – |
| I-2 (Inhibitor-2) | 1 | – | 9783 | – | 2660 | – |
| fid (fire dancer) | 1 | – | 20450 | – | 11408 | – |
| fid (fire dancer) | 2 | – | 29905 | – | 12208 | – |
| CG14125 | 1 | – | 11431 | – | 2985 | – |
| Ser8 | 1 | – | 9057 | – | 2736 | – |
| CG17493 | 1 | – | 2272 | 7691 | 537 | 2202 |
| CG7366 | 1 | – | 5112 | – | 1923 | – |
| CG31559 | 1 | – | 15173 | – | 3513 | – |
| CG31559 | 2 | – | 12548 | – | 3175 | – |
| CG12182 | 1 | – | 14570 | – | 4096 | – |
| CG32071 | 1 | – | 5.40e5 | 5.43e5 | 1.57e5 | 1.63e5 |
| Pvf3 (PDGF- and VEGF-related factor 3) | 1 | – | 3035 | 9620 | 941 | 2770 |
| Pvf3 (PDGF- and VEGF-related factor 3) | 2 | – | 2965 | 6325 | 918 | 2442 |
| Pvf3 (PDGF- and VEGF-related factor 3) | 3 | Wg reporter activity lowered (active) | 784 | 1347 | 451 | 1680 |
| Pvf3 (PDGF- and VEGF-related factor 3) | 4 | – | 3049 | 5754 | 597 | 1824 |
| CG15422 | 1 | – | 3082 | 7514 | 1115 | 2656 |
| YME1L (YME1 like ATPase) | 1 | – | 8137 | – | 2484 | – |
| CG15337 | 1 | – | 23149 | – | 11506 | – |
| CG15337 | 2 | – | 5.53e5 | 5.76e5 | 2.06e5 | 97259 |
| CG4520 | 1 | – | 19126 | – | 3804 | – |
| CG9752 | 1 | – | 6131 | – | 2004 | – |
| Sap47 (Synapse-associated protein 47kD) | 1 | – | 2999 | 7130 | 944 | 1449 |
| unc-5 | 1 | – | 24152 | 7.85e5 | 16464 | 3.94e5 |
| unc-5 | 2 | – | 5468 | – | 1850 | – |
| unc-5 | 3 | – | 3943 | – | 1525 | – |
| CG34231 | 1 | – | 18745 | – | 12074 | – |
| sp3 (spermathreecae) | 1 | – | 32199 | – | 6388 | – |
| CG6472 | 1 | – | 4855 | – | 1733 | – |
| dpr14 (defective proboscis extension response 14) | 1 | – | 2320 | 5738 | 1088 | 2581 |
| CG32228 | 1 | – | 4.30e5 | 3.81e5 | 1.77e5 | 1.59e5 |
| CG2267 | 1 | – | 5078 | – | 2176 | – |
| hry (hairy) | 1 | Wg reporter activity raised (active) | 10385 | – | 1303 | – |
| CG10283 | 1 | – | 7931 | – | 3074 | – |
| CG46441 | 1 | – | 3571 | 10778 | 1836 | 2925 |
| CG30288 | 1 | – | 7.78e5 | 8.25e5 | 3.00e5 | 3.17e5 |
| CG31798 | 1 | – | 19207 | – | 8560 | – |
| Sytalpha (Synaptotagmin alpha) | 1 | – | 2528 | 5776 | 1019 | 3436 |
| Acsl (Acyl-CoA synthetase long-chain) | 1 | – | 7581 | – | 3019 | – |
| uif (uninflatable) | 1 | – | 22712 | – | 8492 | – |
| uif (uninflatable) | 2 | – | 3068 | 8073 | 1196 | 3136 |
| PVRAP (PVR adaptor protein) | 1 | – | 1632 | 4572 | 1241 | 2107 |
| PVRAP (PVR adaptor protein) | 2 | – | 1590 | 5242 | 1456 | 3348 |
| CG13297 | 1 | – | 1585 | 9060 | 1098 | 3002 |
| serp (serpentine) | 1 | – | 16225 | – | 5216 | – |
| serp (serpentine) | 2 | – | 12628 | – | 4186 | – |
| CG11317 | 1 | – | 3549 | 6048 | 1154 | 2104 |

Hits, of those listed so far:
| Gene | reagent no. | reporter change call, replicate 1 | firefly reporter light, replicate 1 | firefly reporter light, replicate 2 | Renilla control light, replicate 1 | Renilla control light, replicate 2 |
| --- | --- | --- | --- | --- | --- | --- |
| CG5151 | 1 | Wg reporter activity raised (active) | 9515 | – | 1136 | – |
| Pvf3 (PDGF- and VEGF-related factor 3) | 3 | Wg reporter activity lowered (active) | 784 | 1347 | 451 | 1680 |
| hry (hairy) | 1 | Wg reporter activity raised (active) | 10385 | – | 1303 | – |
